According to publication PMC5451212, “RISC-interacting clearing 3’- 5’ exoribonucleases (RICEs) degrade uridylated cleavage fragments to maintain functional RISC in Arabidopsis thaliana” (eLife, 2017):
No constants are given. Whether binding was seen depends on the method and setting. Where a sequence is shown, tags or fusion partners need not be part of it.

Legend:
[1] = target: T1, 6His-SUMO-RICE1 (A. thaliana) (UniProt Q9SF21); test: pull-down; His-SUMO baits and MBP-fusion preys purified from E. coli; prey preabsorbed on Ni-NTA resin, then incubated with bait 1 hr at room temperature and captured on Ni-NTA; 50 mM Tris pH 7.5, 150 mM NaCl, 0.2% glycerol, 0.6% Triton X-100, 0.5 mM β-mercaptoethanol; six washes with 300 mM NaCl; blot with anti-MBP; both purified
T1 sequence: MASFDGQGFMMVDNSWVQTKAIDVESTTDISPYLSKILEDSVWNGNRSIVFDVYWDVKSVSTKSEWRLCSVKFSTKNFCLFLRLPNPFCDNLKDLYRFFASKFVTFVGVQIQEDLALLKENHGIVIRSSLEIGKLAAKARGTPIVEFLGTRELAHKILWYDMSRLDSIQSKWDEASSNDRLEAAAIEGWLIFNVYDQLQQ

[2] = target: T2, 6His-SUMO-RICE2 (A. thaliana) (UniProt Q9FNG3); test: as above
T2 sequence: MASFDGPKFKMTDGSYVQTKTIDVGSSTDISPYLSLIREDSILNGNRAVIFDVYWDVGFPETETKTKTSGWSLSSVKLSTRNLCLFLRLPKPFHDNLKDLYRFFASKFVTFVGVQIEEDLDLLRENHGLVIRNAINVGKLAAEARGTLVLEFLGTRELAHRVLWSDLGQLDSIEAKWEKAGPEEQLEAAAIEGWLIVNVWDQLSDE

Row | Substance | binding [1] | binding [2]
1 | MBP-tagged variable part of the AGO1 N-terminal domain (A. thaliana) (domain or fragment) | no binding | no binding
2 | MBP-tagged variable part of the AGO10 N-terminal domain (A. thaliana) (domain or fragment) | no binding | no binding
